Measured values from patent EP0546533A2, “Medical use of kininogenase” (SANWA KAGAKU KENKYUSHO CO., LTD., priority 1991, dated 1993).
For at least one compound, name, drawing or mass did not settle the structure.

Test system: region occurred a cerebral infarction
Assay: Influence to region of cerebral infarction 24 hours after glass bead injection
Format: in vivo, rabbit
Details: 100mg/kg, sustaining administration for 30 minutes
Procedure: With use of model animals as in Pharmacological Test Example 4, an influence of a drug to region occurred a cerebral infarction at the time after lapsed 24 hours from the injection of glass bead was checked.

## C[N+](C)(C)CCOP(=O)(O)OP(=O)([O-])OC[C@H]1O[C@@H](n2ccc(N)nc2=O)[C@H](O)[C@@H]1O [Citicholine]
  Number of animal died/used (rate of die): 5/7 (71%)
